Experimental data as given in the supplement of paper PMC10849652.
The other results are listed elsewhere or left out.

Sequences of proteins named here, by UniProt entry; tags and fusion partners are left off. A change or cut given only in a name is not applied to a line headed by its entry.
UniProt Q9NS93: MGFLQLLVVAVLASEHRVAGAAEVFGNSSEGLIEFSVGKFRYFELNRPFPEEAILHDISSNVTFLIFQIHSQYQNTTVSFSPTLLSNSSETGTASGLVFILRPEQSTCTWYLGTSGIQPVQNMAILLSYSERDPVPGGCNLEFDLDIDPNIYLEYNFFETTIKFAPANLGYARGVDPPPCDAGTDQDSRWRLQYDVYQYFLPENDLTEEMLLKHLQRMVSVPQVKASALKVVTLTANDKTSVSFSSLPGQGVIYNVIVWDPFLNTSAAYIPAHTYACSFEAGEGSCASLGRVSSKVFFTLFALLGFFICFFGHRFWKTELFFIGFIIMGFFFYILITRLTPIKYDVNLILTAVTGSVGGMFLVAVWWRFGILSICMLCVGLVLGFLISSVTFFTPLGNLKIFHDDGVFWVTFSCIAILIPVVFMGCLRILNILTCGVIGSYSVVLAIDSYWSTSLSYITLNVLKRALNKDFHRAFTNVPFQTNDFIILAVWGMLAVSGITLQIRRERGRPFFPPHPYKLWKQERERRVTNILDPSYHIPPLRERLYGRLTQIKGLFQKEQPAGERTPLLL
UniProt Q96B96: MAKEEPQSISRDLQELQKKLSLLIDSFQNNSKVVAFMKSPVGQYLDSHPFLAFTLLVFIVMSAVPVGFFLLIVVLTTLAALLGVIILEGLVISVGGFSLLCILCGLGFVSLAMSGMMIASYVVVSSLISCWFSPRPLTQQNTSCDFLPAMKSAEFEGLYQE
UniProt Q969X1: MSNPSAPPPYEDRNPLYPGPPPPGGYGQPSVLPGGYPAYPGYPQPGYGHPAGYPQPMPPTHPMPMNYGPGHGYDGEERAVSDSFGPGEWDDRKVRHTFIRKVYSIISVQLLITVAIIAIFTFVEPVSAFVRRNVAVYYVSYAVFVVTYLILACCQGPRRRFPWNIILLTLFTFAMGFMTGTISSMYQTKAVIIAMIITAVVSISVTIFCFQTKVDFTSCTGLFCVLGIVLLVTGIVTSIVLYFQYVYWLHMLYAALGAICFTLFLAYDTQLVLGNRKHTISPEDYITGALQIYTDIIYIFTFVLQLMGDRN
UniProt Q86WV6: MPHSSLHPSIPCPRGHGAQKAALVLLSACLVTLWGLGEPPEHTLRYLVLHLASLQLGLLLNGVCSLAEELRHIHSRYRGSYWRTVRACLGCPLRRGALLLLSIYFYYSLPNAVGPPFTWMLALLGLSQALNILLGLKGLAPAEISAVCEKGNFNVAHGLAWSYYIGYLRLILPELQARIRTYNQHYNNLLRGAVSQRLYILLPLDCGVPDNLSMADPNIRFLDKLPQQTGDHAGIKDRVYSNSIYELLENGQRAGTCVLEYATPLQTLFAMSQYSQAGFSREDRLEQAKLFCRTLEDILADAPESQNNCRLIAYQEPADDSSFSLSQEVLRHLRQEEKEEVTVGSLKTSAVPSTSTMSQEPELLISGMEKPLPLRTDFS
UniProt Q5U3C3: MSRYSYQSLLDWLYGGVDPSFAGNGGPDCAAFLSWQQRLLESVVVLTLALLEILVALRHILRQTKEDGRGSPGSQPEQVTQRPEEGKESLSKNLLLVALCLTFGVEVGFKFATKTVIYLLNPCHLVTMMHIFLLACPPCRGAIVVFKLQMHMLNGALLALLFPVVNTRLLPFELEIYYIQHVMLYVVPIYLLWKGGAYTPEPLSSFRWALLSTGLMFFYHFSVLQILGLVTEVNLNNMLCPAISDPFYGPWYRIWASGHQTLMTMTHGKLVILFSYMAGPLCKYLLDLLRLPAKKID
UniProt Q8N131: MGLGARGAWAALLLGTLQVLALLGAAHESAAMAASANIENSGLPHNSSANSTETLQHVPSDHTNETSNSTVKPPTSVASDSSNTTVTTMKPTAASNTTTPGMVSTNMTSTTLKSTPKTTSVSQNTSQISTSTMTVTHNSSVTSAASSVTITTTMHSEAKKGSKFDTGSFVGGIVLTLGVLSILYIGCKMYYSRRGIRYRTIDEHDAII
UniProt Q9BTX3: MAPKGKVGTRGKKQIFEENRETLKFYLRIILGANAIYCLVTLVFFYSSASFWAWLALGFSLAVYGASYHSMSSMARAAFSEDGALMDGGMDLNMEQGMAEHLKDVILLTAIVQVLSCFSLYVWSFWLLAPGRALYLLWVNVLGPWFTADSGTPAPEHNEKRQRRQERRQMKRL
UniProt Q86XT9, whole entry, looked up: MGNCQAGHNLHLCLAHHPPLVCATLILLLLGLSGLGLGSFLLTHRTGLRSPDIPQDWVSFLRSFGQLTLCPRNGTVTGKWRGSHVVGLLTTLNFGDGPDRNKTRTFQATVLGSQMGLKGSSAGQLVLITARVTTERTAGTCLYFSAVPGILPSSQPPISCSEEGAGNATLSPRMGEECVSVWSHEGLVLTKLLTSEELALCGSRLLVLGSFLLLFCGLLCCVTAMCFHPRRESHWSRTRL
UniProt Q53S58: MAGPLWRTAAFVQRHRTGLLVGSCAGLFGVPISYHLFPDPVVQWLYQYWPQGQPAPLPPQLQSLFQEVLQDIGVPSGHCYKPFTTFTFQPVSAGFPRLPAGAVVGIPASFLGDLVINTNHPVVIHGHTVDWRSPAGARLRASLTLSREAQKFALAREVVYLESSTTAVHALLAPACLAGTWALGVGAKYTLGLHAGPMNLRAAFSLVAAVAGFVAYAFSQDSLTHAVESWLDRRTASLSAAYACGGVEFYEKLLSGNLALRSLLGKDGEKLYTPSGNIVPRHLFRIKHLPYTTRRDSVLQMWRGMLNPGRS
UniProt Q6ZXV5: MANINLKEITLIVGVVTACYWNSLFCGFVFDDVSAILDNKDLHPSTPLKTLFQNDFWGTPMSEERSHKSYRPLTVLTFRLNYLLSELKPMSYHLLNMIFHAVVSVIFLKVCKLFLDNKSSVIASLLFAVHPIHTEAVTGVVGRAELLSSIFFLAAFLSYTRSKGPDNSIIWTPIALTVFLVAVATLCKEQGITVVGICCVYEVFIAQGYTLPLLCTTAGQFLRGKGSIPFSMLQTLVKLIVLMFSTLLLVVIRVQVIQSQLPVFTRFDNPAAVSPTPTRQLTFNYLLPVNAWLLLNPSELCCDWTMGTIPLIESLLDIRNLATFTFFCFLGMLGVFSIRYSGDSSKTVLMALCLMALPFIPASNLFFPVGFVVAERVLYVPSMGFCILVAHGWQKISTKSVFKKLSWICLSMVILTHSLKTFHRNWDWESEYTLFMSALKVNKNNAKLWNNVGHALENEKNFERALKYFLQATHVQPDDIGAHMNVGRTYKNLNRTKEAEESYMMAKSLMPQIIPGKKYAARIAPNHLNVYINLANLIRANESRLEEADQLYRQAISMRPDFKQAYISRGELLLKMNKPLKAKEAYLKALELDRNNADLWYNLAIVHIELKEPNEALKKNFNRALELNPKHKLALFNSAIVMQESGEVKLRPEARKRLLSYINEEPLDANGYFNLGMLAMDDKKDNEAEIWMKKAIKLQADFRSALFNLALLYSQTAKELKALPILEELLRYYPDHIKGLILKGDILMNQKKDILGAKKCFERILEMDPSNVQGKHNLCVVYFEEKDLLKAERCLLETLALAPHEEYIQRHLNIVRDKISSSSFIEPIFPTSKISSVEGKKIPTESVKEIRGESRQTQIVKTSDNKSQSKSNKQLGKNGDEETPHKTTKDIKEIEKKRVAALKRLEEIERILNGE
UniProt Q5BJH2: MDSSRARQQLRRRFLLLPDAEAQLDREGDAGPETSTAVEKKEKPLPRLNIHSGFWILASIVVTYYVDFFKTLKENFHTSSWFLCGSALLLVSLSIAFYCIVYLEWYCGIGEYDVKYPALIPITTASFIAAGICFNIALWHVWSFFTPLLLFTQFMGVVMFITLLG
UniProt Q9NVA4: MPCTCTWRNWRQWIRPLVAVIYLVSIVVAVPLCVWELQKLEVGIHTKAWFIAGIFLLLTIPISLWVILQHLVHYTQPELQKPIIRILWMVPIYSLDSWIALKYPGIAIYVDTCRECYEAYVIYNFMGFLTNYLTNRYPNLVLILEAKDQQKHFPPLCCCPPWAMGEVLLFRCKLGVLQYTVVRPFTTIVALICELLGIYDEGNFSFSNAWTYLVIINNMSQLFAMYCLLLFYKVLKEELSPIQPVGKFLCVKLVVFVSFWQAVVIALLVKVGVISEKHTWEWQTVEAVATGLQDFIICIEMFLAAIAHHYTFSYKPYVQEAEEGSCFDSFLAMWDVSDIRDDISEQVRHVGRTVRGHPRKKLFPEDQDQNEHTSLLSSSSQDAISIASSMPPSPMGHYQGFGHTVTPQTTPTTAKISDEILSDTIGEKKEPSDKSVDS
UniProt O95379: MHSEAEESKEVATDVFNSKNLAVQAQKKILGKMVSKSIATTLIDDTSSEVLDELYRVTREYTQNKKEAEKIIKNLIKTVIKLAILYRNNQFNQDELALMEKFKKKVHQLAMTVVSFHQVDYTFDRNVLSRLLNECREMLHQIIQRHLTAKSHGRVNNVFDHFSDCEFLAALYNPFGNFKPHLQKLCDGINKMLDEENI
UniProt Q86UE8, whole entry, looked up: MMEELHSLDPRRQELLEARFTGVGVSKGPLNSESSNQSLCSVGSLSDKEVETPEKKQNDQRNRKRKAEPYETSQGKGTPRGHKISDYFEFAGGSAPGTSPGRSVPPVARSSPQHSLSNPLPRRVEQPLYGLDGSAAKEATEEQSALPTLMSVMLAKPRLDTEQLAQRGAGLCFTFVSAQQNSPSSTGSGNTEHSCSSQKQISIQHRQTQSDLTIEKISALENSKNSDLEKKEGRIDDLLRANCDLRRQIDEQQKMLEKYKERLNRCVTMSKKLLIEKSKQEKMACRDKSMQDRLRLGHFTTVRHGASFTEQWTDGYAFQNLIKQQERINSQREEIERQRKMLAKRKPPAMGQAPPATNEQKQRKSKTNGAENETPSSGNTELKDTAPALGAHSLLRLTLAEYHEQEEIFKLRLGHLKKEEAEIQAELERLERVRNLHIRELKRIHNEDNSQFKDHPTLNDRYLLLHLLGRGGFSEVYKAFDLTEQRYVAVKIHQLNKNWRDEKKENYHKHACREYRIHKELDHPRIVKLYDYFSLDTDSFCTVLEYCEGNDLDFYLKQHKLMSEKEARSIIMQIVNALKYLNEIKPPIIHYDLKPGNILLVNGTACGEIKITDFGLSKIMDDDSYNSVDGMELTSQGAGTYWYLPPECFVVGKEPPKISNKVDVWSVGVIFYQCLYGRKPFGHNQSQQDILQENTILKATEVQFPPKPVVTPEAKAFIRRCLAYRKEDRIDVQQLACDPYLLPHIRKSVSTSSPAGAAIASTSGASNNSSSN
UniProt Q9P0T7: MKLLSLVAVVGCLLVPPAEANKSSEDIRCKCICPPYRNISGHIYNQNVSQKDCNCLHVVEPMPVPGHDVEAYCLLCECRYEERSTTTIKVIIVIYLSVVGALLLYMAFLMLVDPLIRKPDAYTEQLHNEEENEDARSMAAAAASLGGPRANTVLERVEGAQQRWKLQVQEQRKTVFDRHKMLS
UniProt Q13829: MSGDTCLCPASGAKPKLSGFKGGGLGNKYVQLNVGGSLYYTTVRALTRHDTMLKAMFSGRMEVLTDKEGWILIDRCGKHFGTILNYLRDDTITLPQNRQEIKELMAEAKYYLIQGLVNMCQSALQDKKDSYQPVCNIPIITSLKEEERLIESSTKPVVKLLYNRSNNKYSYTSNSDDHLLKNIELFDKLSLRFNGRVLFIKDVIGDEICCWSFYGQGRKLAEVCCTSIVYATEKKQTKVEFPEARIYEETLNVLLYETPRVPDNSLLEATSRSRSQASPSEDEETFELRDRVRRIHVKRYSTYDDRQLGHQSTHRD

Tests used:
Assay in all cases: log2 fold change, soluble protein after heating vs DMSO (PISA); higher = thermal stabilisation; K562 cells, 10 uM, 30 min; active = over 0.2 and 3.5 SD of the protein, either way, in both replicates (recomputed)
saracatinib = compound: CN1CCN(CCOc2cc(OC3CCOCC3)c3c(Nc4c(Cl)ccc5c4OCO5)ncnc3c2)CC1 [saracatinib]
Method in brief: (§1)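 K562 cells at 2×10^6 cells/mL were treated with 10 μM compound for 30 min. Aliquots were heated for 3 min across 48°C-58°C, pooled, and extracted in PBS with 0.5% NP-40 at 4°C; soluble protein was the supernatant after 21,000xg for 90 min. Soluble protein was quantified by TMTpro 16plex LC-MS/MS with channel sums equalised, and reported as log2 fold change in thermal stability against DMSO controls, with values from duplicates.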

sotrastaurin = compound: CN1CCN(c2nc(C3=C(c4c[nH]c5ccccc45)C(=O)NC3=O)c3ccccc3n2)CC1 [sotrastaurin]
Method in brief: as §1

Tubastatin A = compound: CN1CCc2c(c3ccccc3n2Cc2ccc(C(=O)NO)cc2)C1 [Tubastatin A]
Method in brief: as §1

[1] = compound: CNC(=O)C1=CC=CC=C1NC2=NC(=NC=C2Cl)NC3=C(C=C(C=C3)N4CCOCC4)OC
Method in brief: as §1

defactinib = compound: CNC(=O)c1ccc(Nc2ncc(C(F)(F)F)c(NCc3nccnc3N(C)S(C)(=O)=O)n2)cc1 [defactinib]
Method in brief: as §1

rucaparib = compound: CNCc1ccc(-c2[nH]c3cc(F)cc4c3c2CCNC4=O)cc1 [rucaparib]
Method in brief: as §1

[2] = compound: CNc1nc(-c2ccc3c(N)n[nH]c3c2)cc(N2C[C@@H](C(=O)NC3CCCCC3)CC[C@H]2C)n1
Method in brief: as §1

encorafenib = compound: COC(=O)N[C@@H](C)CNc1nccc(-c2cn(C(C)C)nc2-c2cc(Cl)cc(NS(C)(=O)=O)c2F)n1 [encorafenib]
Method in brief: as §1

[3] = compound: COC(=O)[C@H](CCSC)NC(=O)C1=C(C=C(C=C1)NC[C@H](CS)N)C2=CC=CC=C2
Method in brief: as §1

[4] = compound: COC1=CC=C(C=C1)CN2C=CC3=C2C=C(C=C3)C(=O)NO
Method in brief: as §1

filanesib = compound: CON(C)C(=O)N1N=C(c2cc(F)ccc2F)S[C@@]1(CCCN)c1ccccc1 [filanesib]
Method in brief: as §1

alisertib = compound: COc1cc(Nc2ncc3c(n2)-c2ccc(Cl)cc2C(c2c(F)cccc2OC)=NC3)ccc1C(=O)O [alisertib]
Method in brief: as §1

[5] = compound: COc1cc2nc(-c3cc(F)ccc3O)nc(N[C@@H]3CNC[C@H]3C(C)(C)O)c2cc1OC
Method in brief: as §1

gefitinib = compound: COc1cc2ncnc(Nc3ccc(F)c(Cl)c3)c2cc1OCCCN1CCOCC1 [gefitinib]
Method in brief: as §1

[6] = compound: COc1cccc2cc(-c3nc([C@H]4CC[C@H](C(=O)O)CC4)n4ncnc(N)c34)[nH]c12
Method in brief: as §1

lapatinib = compound: CS(=O)(=O)CCNCc1ccc(-c2ccc3ncnc(Nc4ccc(OCc5cccc(F)c5)c(Cl)c4)c3c2)o1 [lapatinib]
Method in brief: as §1

pictilisib = compound: CS(=O)(=O)N1CCN(Cc2cc3nc(-c4cccc5[nH]ncc45)nc(N4CCOCC4)c3s2)CC1 [pictilisib]
Method in brief: as §1

zotarolimus = compound: CO[C@H]1C[C@@H]2CC[C@@H](C)[C@@](O)(O2)C(=O)C(=O)N2CCCC[C@H]2C(=O)O[C@H]([C@H](C)C[C@@H]2CC[C@H](n3cnnn3)[C@H](OC)C2)CC(=O)[C@H](C)/C=C(\C)[C@@H](O)[C@@H](OC)C(=O)[C@H](C)C[C@H](C)/C=C/C=C/C=C/1C [zotarolimus]
Method in brief: as §1

idasanutlin = compound: COc1cc(C(=O)O)ccc1NC(=O)[C@@H]1N[C@@H](CC(C)(C)C)[C@](C#N)(c2ccc(Cl)cc2F)[C@H]1c1cccc(Cl)c1F [idasanutlin]
Method in brief: as §1

alvocidib = compound: CN1CC[C@H](c2c(O)cc(O)c3c(=O)cc(-c4ccccc4Cl)oc23)[C@H](O)C1 [alvocidib]
Method in brief: as §1

Measured: log2 fold change

TMEM167B (UniProt Q9NRX6)
inactive: saracatinib 0.046 | sotrastaurin 0.018 | Tubastatin A 0.009 | [1] -0.028 | defactinib -0.069 | rucaparib -0.055 | [2] -0.061 | encorafenib 0.021 | [3] 0.021 | [4] -0.084 | filanesib -0.08 | alisertib 0.082 | [5] -0.023 | gefitinib 0.117 | [6] 0.087 | lapatinib -0.011 | pictilisib 0.044

TM7SF3 (UniProt Q9NS93)
inactive: saracatinib 0.072 | sotrastaurin 0.035 | Tubastatin A -0.082 | [1] 0.039 | rucaparib -0.077 | [2] -0.011 | encorafenib 0.089 | [4] -0.002 | filanesib -0.218 | zotarolimus -0.042 | idasanutlin -0.015 | alisertib -0.217 | [5] 0.101 | gefitinib -0.066 | [6] 0.248 | lapatinib 0.014

TMEM159 isoform 2 (UniProt Q96B96)
inactive: saracatinib 0.323 | sotrastaurin -0.037 | Tubastatin A -0.021 | [1] -0.155 | [2] -0.001 | filanesib -0.049 | alisertib -0.034 | gefitinib -0.111 | [6] -0.214 | pictilisib 0.167

TMBIM1 (UniProt Q969X1)
inactive: saracatinib -0.147 | sotrastaurin 0.012 | Tubastatin A 0.002 | [1] -0.042 | defactinib 0.043 | rucaparib -0.009 | [2] -0.097 | encorafenib -0.223 | [3] 0.051 | filanesib -0.161 | zotarolimus -0.117 | idasanutlin 0.013 | alisertib -0.018 | [5] -0.254 | gefitinib -0.004 | [6] 0.088 | lapatinib 0.172 | pictilisib 0.138

TMEM268 isoform 3 (UniProt Q5VZI3)
inactive: saracatinib 0.033 | sotrastaurin -0.103 | Tubastatin A 0.131 | [1] -0.017 | rucaparib -0.021 | [2] 0.046 | encorafenib -0.19 | filanesib -0.064 | zotarolimus 0.104 | idasanutlin -0.135 | alisertib 0.014 | [5] -0.25 | gefitinib -0.079 | [6] 0.001 | lapatinib 0.09 | pictilisib -0.088

TMEM173 (UniProt Q86WV6)
inactive: saracatinib -0.002 | sotrastaurin -0.023 | Tubastatin A 0.03 | [1] 0.014 | defactinib -0.055 | rucaparib -0.078 | [2] 0.034 | encorafenib 0.062 | [3] -0.005 | [4] -0.177 | filanesib 0.007 | zotarolimus 0.025 | idasanutlin -0.209 | alisertib -0.073 | [5] 0.034 | gefitinib -0.013 | [6] -0.008 | lapatinib -0.062 | pictilisib -0.037

TMEM164 (UniProt Q5U3C3)
inactive: saracatinib -0.13 | sotrastaurin 0.197 | Tubastatin A 0.012 | [1] 0.033 | defactinib 0.06 | rucaparib -0.233 | [2] 0.061 | encorafenib 0.211 | [3] -0.003 | [4] 0.045 | filanesib -0.306 | zotarolimus -0.039 | idasanutlin -0.031 | alisertib 0.211 | [5] 0.098 | gefitinib -0.013 | [6] 0.198 | lapatinib -0.06 | pictilisib 0.008

TMEM123 (UniProt Q8N131)
inactive: saracatinib 0.03 | sotrastaurin 0.012 | Tubastatin A -0.033 | [1] -0.096 | defactinib -0.064 | rucaparib -0.061 | [2] 0.054 | encorafenib -0.022 | [3] 0.086 | filanesib 0.003 | idasanutlin -0.045 | alisertib -0.095 | [5] 0.059 | gefitinib 0.023 | [6] -0.069 | lapatinib -0.116

TMEM208 (UniProt Q9BTX3)
inactive: saracatinib -0.047 | sotrastaurin -0.02 | Tubastatin A 0.003 | [1] -0.142 | defactinib -0.023 | rucaparib -0.045 | [2] -0.099 | encorafenib 0.145 | [3] -0.164 | [4] -0.131 | filanesib -0.254 | zotarolimus -0.111 | idasanutlin -0.137 | alisertib 0.109 | [5] 0.019 | gefitinib -0.055 | [6] -0.146 | lapatinib -0.151 | pictilisib -0.17

TMEM219 (UniProt Q86XT9)
inactive: saracatinib 0.261 | sotrastaurin 0.03 | Tubastatin A -0.059 | [1] -0.016 | defactinib -0.185 | [2] 0.176 | [3] -0.093 | filanesib -0.065 | zotarolimus -0.181 | idasanutlin -0.017 | [5] -0.011 | gefitinib -0.029 | lapatinib 0.058 | pictilisib -0.277

TMEM177 (UniProt Q53S58)
inactive: saracatinib 0.078 | sotrastaurin 0.014 | Tubastatin A 0.08 | [1] 0.005 | defactinib -0.046 | rucaparib 0.009 | [2] -0.003 | encorafenib -0.02 | [3] 0.024 | [4] -0.037 | filanesib -0.115 | zotarolimus 0.019 | idasanutlin -0.077 | alisertib -0.199 | [5] -0.154 | gefitinib 0.077 | [6] 0.086 | lapatinib -0.016 | pictilisib 0.151

TMTC3 (UniProt Q6ZXV5)
inactive: saracatinib -0.03 | sotrastaurin 0.028 | Tubastatin A 0.009 | [1] 0.012 | defactinib 0.009 | rucaparib 0.022 | [2] 0.006 | encorafenib 0.028 | [3] -0.019 | [4] -0.092 | filanesib 0.01 | zotarolimus 0.006 | idasanutlin -0.03 | alisertib 0.105 | [5] -0.085 | gefitinib -0.007 | [6] -0.041 | lapatinib 0.053 | pictilisib 0.032

TMEM128 (UniProt Q5BJH2)
inactive: saracatinib 0.083 | sotrastaurin 0.01 | Tubastatin A -0.011 | [1] -0.023 | defactinib -0.045 | rucaparib 0.019 | [2] -0.062 | encorafenib -0.006 | [3] -0.006 | [4] -0.065 | filanesib 0.152 | zotarolimus -0.181 | idasanutlin 0.035 | [5] 0.025 | gefitinib 0.076 | lapatinib -0.068

TMEM184C (UniProt Q9NVA4)
inactive: saracatinib 0.022 | sotrastaurin 0.139 | Tubastatin A 0.022 | defactinib -0.049 | rucaparib 0.028 | [2] -0.182 | encorafenib 0.051 | [3] 0.118 | [4] -0.006 | filanesib 0.162 | zotarolimus -0.11 | idasanutlin -0.112 | alisertib 0.059 | gefitinib -0.043 | [6] 0.077 | pictilisib 0.162

TNFAIP8 isoform 4 (UniProt O95379)
inactive: saracatinib 0.009 | sotrastaurin -0.125 | Tubastatin A 0.083 | [1] -0.046 | defactinib -0.033 | rucaparib -0.04 | [2] -0.064 | encorafenib -0.016 | [3] -0.015 | [4] 0.027 | filanesib -0.015 | zotarolimus 0.085 | idasanutlin -0.055 | alisertib -0.01 | [5] 0.046 | gefitinib 0.028 | [6] 0.041 | lapatinib 0.065 | pictilisib -0.027

TLK2 isoform 2 (UniProt Q86UE8)
inactive: saracatinib 0.048 | sotrastaurin -0.012 | Tubastatin A 0.014 | [1] -0.031 | defactinib 0 | rucaparib -0.051 | [2] -0.003 | encorafenib -0.006 | [3] 0 | [4] -0.019 | filanesib 0.038 | zotarolimus 0.032 | idasanutlin 0.087 | alisertib 0.115 | [5] -0.036 | gefitinib 0.007 | [6] 0.06 | lapatinib 0.041 | pictilisib -0.071

TMEM9 (UniProt Q9P0T7)
inactive: saracatinib 0.051 | sotrastaurin -0.025 | Tubastatin A 0.016 | [1] 0.004 | defactinib -0.014 | rucaparib 0.003 | [2] 0.033 | encorafenib 0.033 | [3] 0.004 | [4] -0.085 | filanesib -0.078 | zotarolimus 0.081 | idasanutlin 0.006 | alisertib -0.081 | [5] -0.178 | gefitinib -0.007 | [6] 0.052 | lapatinib 0.04 | pictilisib 0.036

TNFAIP1 (UniProt Q13829)
inactive: saracatinib -0.139 | alvocidib 0.009 | Tubastatin A -0.011 | [1] -0.061 | defactinib 0.139 | rucaparib 0.015 | [2] -0.272 | encorafenib -0.014 | [3] -0.038 | [4] -0.132 | zotarolimus 0.116 | idasanutlin -0.021 | alisertib 0.001 | [5] -0.021 | gefitinib 0.075 | [6] -0.067 | lapatinib 0.017

Pulled one by one from the list above (two):
TNFAIP8 isoform 4 (UniProt O95379)
inactive: saracatinib 0.009 | sotrastaurin -0.125 | Tubastatin A 0.083 | [1] -0.046 | defactinib -0.033 | rucaparib -0.04 | [2] -0.064 | encorafenib -0.016 | [3] -0.015 | [4] 0.027 | filanesib -0.015 | zotarolimus 0.085 | idasanutlin -0.055 | alisertib -0.01 | [5] 0.046 | gefitinib 0.028 | [6] 0.041 | lapatinib 0.065 | pictilisib -0.027

TMEM9 (UniProt Q9P0T7)
inactive: saracatinib 0.051 | sotrastaurin -0.025 | Tubastatin A 0.016 | [1] 0.004 | defactinib -0.014 | rucaparib 0.003 | [2] 0.033 | encorafenib 0.033 | [3] 0.004 | [4] -0.085 | filanesib -0.078 | zotarolimus 0.081 | idasanutlin 0.006 | alisertib -0.081 | [5] -0.178 | gefitinib -0.007 | [6] 0.052 | lapatinib 0.04 | pictilisib 0.036
